Paper PMC4805248
Negatives hold for the conditions tested. Tags and fusion partners may be left off the protein sequences shown. For part of these data: For at least one entry, the source does not settle the construct or the ends of the probe. For part of these data: A weaker result is weaker than the reference pair of the same experiment.

Legend:
[1] = target: T1, PgMntR (Porphyromonas gingivalis W50 (W83 locus PG1044)) (UniProt Q7MVL0); experiment: EMSA; conditions: EMSA: 1 nM biotinylated DNA, 700-1000 nM protein, 90 mM Bis-Tris borate pH 6.8 (1 mM TCEP, 5 mM DTT) or 10 mM Tris-Cl pH 7.5 or Tris-acetate pH 6.8, 50 mM KCl, recombinant protein, residues 1-310, protein details: His-tag cleaved by HRV 3C, N-terminal GPG left, label: 5' biotin on both primers, probe letters rebuilt from the primers and the genome
T1 sequence (looked up): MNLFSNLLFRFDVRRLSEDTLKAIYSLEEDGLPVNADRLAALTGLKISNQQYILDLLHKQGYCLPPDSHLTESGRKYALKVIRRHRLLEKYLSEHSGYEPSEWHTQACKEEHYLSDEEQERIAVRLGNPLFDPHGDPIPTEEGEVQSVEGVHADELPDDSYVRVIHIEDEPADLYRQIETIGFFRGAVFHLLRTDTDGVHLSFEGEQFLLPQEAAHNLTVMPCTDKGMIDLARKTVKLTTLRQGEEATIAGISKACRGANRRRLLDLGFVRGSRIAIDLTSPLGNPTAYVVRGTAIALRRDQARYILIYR

[2] = target: T2, PgMntR ΔFeoA2 (Porphyromonas gingivalis W50) (UniProt Q7MVL0); experiment: EMSA; conditions: EMSA: 1 nM biotinylated DNA, 700-1000 nM protein, 90 mM Bis-Tris borate pH 6.8 (1 mM TCEP, 5 mM DTT) or 10 mM Tris-Cl pH 7.5 or Tris-acetate pH 6.8, 50 mM KCl, recombinant protein, protein details: His-tag cleaved, N-terminal GPG left, label: 5' biotin on both primers, probe letters rebuilt from the primers and the genome
T2 sequence (looked up, limits assumed): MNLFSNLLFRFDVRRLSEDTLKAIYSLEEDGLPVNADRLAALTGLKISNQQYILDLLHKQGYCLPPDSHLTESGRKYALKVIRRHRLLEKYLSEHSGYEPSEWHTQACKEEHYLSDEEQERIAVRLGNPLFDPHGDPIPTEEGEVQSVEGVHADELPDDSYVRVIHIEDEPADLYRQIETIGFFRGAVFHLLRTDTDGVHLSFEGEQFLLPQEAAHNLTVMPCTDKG

GCTTCTATAACTTCTATTATTACCGAAGTGTTCGGTCTGTTGGCCTGTGGCACAACGTTTTCAGTATGACAAAGGTGCTTATTTTATCGAAGAATCCGTCAAACTGCAGGCTCTCCTGTGCTATTTTACCTGCATTGAGGTATCCGGAGGCGGAGTTGCTTCTACAAGATCGTTTCCACTTTCTTCCCTGACTATTCCGGTCATTGACAGACTGAAAAATACGTACCAAAAAAGTTTTCAACAACGAAGATGAGTTTGGAATGATTCCAAATAAGCACCTGAAAGGAAGACGATTTCGAAGTCAAAAAGGCAAGAAAAGGAAGTTTTTCAGGTAGAAACATGACTTTTGGAAAGAAGATAACGATTTATATACAAATCATTTACG (double strand) [P1 (promoter region upstream of pgmntR/FB2 operon)]
binding result ([1]; Mn2+, pH 6.8, reducing, binding increased over apo): binds | binding result ([1]; Mn2+, pH 7.5 Tris, concentration dependent 750-1000 nM, complete at >=950 nM): binds | binding result ([1]; higher Fe2+ (up to 40 uM), pH 6.8, reducing, complex dissociated): binds more weakly | binding result ([1]; low Fe2+, pH 6.8, reducing, little effect): binds | binding result ([1]; no metal, 700 nM protein, pH 6.8, reducing, lower affinity than with Mn2+): binds | binding result ([1]; no metal, pH 7.5 Tris): binds | binding result ([1]; up to 1 mM EDTA, 700 nM protein (apo)): binds | binding result ([2]; 20 uM Fe2+, Tris-acetate pH 6.8): no binding | binding result ([2]; Mn2+): no binding | binding result ([2]; no metal): no binding

GGTTCATATCAATGTAGATACATTGGCTGCTTTGCTGAAAGACATAGAACTGACAGCCGTGGAATTGAATTTCAACTGTTGTATCACACGTGCCGCAGACCTGCTGTCAGCATTCTCTGCATATGTCAAAAAGGTTGGTGCCGATCCGAATAAATGTCATGGTTCGGTCAGCTACGACCCGTTCAAAAAGCAGCTCGTCCGCGGCGTATCCAATCCCGATTGGGTGAAGATGACACTCCCCGTCATGGATGCTGCACGCGAACTGCCTGCTTTCCGGGTGCTCAATGTAAATGCCGTGAATCTGTCCGATGCCGGCGCATTCATTACCCAAGAGCTGGGATATGCTTTGGCTTGGGGCGCAGAGCTGTTGGACAAGCTGACCGAT (double strand) [C1 (internal PG1656)]
binding result ([1]; Mn2+, pH 7.5 Tris): no binding | binding result ([1]; no metal, 700 nM protein, pH 6.8, reducing): no binding
